From the supplement of paper PMC10849652
This is one part of the list.

Sequences of proteins named here, by UniProt entry; tags and fusion partners are left off. A change or cut given only in a name is not applied to a line headed by its entry.
UniProt P51610: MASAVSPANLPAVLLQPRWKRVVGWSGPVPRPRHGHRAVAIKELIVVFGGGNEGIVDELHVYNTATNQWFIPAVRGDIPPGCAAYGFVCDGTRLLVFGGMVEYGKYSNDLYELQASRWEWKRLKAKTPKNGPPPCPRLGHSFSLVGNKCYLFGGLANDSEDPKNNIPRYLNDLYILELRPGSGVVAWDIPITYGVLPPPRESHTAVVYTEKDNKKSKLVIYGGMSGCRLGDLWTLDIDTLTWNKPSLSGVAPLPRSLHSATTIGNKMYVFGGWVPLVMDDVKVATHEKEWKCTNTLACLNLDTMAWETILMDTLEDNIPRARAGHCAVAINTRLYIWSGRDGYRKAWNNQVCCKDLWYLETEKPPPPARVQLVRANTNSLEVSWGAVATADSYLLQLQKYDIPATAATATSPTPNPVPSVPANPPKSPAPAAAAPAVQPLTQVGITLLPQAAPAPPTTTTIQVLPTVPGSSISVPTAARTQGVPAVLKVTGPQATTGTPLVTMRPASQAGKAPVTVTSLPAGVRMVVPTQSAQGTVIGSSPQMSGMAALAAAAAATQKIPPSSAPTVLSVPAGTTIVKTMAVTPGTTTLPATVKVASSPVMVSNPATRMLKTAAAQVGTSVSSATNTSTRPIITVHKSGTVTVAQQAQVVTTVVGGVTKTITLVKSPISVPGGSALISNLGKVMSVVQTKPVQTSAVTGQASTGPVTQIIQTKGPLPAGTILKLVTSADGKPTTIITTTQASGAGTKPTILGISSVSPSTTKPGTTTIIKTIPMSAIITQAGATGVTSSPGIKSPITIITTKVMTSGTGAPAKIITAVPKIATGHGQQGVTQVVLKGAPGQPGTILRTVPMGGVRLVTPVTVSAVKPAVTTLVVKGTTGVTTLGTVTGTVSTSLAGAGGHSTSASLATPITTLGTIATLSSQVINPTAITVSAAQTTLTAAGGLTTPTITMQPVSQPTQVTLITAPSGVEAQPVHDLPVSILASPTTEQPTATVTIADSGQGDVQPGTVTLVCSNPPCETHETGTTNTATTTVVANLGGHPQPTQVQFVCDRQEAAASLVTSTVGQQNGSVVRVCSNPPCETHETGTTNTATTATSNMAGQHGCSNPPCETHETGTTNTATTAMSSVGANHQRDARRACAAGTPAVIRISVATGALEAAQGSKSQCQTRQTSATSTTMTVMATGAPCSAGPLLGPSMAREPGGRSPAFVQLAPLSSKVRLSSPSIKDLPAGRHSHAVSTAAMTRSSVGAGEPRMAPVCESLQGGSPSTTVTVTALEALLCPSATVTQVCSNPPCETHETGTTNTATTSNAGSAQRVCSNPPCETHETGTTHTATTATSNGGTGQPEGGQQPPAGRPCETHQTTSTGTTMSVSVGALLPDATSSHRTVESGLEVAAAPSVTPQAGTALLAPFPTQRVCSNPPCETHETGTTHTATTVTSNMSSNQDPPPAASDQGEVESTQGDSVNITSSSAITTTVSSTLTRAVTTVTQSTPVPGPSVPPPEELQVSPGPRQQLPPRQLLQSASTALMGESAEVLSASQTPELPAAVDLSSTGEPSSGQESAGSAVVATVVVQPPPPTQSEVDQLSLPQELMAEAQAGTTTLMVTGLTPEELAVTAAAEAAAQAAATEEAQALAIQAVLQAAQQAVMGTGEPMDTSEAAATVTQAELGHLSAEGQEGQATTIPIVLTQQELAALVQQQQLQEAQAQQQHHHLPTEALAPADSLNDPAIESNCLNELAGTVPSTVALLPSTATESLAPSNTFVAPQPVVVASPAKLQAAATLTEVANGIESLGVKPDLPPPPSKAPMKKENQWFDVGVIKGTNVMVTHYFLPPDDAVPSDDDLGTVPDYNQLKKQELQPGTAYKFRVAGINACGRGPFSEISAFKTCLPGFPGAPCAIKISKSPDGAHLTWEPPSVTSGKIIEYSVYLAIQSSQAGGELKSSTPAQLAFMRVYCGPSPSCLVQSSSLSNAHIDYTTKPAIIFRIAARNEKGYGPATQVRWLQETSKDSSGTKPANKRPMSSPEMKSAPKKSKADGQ
UniProt P48637: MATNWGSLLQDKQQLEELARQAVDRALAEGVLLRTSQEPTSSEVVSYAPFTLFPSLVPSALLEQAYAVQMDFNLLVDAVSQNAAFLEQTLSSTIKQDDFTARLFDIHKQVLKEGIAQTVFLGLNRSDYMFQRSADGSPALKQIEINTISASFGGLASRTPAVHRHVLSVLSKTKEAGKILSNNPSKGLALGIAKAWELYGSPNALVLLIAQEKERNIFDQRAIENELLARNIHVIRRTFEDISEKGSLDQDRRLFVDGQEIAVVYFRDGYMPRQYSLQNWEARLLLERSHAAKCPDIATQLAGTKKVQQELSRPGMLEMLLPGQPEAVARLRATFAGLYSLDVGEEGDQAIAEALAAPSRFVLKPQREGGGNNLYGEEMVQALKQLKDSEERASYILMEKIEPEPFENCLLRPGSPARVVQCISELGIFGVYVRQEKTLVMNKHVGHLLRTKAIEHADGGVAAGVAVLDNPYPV
UniProt P16402, whole entry, looked up: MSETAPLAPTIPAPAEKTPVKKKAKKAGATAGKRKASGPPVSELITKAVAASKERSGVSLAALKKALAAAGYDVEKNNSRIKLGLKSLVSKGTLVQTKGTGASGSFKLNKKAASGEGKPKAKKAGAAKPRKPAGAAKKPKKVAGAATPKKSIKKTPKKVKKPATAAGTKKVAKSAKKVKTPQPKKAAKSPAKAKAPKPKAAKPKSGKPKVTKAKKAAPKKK
UniProt Q9P035: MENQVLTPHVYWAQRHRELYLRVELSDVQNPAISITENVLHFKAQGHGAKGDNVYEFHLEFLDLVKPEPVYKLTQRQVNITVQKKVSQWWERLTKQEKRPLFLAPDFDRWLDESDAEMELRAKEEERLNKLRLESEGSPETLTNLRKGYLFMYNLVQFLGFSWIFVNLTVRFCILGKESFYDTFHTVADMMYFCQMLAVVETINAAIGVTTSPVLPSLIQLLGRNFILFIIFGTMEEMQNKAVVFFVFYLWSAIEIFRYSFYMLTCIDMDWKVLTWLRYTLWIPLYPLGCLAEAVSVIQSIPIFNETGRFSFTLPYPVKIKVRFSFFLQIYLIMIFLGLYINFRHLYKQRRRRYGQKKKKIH
UniProt Q96CS2: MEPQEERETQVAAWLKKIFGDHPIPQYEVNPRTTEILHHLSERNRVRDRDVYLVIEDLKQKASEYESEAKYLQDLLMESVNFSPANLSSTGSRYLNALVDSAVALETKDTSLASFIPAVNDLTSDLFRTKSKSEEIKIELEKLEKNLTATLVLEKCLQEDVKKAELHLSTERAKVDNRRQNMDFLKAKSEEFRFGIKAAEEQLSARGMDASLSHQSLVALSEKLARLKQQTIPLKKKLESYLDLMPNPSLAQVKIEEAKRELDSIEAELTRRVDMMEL
UniProt Q9Y5Z4: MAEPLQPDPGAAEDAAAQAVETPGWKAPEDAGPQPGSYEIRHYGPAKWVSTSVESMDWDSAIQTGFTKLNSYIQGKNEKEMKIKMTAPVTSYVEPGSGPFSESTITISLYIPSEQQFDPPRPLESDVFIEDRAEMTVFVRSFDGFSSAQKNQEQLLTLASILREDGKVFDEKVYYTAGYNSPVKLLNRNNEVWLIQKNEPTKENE
UniProt P00390: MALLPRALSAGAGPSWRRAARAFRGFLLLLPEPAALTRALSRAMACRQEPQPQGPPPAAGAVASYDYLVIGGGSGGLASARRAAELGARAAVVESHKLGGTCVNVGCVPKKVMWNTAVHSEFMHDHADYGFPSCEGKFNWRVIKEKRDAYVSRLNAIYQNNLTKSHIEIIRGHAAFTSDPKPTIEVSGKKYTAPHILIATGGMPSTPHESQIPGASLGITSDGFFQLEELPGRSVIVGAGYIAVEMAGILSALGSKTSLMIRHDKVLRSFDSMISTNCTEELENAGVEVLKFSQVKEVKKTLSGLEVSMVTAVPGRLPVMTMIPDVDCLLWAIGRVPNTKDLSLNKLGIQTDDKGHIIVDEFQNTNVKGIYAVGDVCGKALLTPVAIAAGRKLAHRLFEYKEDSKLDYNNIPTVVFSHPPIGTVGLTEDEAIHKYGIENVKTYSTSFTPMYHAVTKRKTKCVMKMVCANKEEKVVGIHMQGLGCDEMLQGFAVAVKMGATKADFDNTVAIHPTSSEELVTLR
UniProt P14317: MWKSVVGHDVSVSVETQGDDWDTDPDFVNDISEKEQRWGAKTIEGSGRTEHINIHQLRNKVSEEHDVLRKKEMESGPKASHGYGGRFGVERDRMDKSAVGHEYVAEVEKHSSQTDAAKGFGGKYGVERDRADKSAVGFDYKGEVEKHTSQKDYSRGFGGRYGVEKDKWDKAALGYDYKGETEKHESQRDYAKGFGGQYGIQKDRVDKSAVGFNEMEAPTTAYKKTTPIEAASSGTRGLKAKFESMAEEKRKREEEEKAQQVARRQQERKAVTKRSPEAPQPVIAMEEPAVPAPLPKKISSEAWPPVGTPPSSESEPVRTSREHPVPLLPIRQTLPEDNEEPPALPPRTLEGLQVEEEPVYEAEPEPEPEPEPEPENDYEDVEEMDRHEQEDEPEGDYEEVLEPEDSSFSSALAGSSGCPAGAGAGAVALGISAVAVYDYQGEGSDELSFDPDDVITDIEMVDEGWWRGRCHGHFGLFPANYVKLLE
UniProt Q9BXL5: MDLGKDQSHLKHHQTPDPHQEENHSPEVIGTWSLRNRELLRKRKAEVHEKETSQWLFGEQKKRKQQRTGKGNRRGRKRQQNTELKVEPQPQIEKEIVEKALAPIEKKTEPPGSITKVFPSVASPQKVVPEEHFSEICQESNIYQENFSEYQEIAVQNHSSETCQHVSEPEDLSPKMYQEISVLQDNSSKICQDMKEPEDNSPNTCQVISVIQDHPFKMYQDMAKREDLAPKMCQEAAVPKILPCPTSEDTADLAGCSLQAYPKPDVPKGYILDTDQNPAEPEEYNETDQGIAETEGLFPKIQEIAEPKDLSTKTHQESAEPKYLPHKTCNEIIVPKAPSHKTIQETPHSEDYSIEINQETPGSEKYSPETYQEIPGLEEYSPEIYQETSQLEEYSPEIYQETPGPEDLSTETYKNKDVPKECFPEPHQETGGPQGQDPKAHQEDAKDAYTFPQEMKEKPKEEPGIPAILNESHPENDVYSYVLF
UniProt Q9BXW7: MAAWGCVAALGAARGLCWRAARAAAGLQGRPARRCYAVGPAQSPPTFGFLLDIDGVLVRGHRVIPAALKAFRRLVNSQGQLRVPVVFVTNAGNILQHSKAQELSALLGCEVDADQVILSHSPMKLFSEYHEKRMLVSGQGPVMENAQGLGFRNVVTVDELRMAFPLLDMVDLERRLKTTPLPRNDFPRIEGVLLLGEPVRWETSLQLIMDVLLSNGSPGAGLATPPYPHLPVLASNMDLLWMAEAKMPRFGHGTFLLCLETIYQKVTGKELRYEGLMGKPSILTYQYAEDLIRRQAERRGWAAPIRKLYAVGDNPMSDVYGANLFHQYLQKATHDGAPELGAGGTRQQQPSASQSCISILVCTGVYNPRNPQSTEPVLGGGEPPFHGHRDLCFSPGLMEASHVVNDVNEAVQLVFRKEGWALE
UniProt Q8NG08: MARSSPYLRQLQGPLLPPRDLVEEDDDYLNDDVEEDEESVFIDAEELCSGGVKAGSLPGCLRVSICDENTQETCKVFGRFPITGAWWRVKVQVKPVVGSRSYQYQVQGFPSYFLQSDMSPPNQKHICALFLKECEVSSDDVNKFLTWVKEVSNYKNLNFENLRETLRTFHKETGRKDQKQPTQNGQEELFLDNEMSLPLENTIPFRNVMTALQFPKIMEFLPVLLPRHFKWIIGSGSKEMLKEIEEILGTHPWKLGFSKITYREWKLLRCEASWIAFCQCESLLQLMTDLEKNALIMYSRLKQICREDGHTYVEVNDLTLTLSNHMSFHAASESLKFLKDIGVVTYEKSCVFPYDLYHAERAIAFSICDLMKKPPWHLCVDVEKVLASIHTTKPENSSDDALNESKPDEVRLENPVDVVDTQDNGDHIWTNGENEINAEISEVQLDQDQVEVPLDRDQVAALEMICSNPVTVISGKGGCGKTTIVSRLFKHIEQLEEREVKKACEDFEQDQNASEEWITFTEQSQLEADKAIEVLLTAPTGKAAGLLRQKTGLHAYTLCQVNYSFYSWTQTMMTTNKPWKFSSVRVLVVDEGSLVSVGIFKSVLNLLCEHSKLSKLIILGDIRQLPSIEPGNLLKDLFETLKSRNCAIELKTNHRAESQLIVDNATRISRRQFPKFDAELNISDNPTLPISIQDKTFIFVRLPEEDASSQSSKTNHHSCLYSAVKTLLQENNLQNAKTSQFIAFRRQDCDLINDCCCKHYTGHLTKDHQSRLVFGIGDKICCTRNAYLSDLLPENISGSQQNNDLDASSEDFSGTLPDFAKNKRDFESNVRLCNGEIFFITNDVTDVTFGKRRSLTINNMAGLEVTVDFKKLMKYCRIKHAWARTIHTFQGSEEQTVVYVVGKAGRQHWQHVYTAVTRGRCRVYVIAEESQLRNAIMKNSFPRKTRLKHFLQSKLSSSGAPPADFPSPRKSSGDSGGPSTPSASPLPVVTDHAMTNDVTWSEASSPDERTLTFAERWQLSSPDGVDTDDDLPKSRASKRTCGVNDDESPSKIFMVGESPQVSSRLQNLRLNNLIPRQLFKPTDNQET

Key:
Experiment in all cases: log2 fold change, soluble protein after heating vs DMSO (PISA); higher = thermal stabilisation; K562 cells, 10 uM, 30 min; active = over 0.2 and 3.5 SD of the protein, either way, in both replicates (recomputed)
[1] = compound: COC1=CC=C(C=C1)CN2C=CC3=C2C=C(C=C3)C(=O)NO
Procedure, shortened: (§1)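 K562 cells at 2×10^6 cells/mL were treated for 30 min with 10 μM compound, and aliquots were heated for 3 min over 48°C-58°C before pooling. Extraction used PBS with 0.5% NP-40 at 4°C, and soluble protein was the supernatant after 21,000xg for 90 min, measured by TMTpro 16plex LC-MS/MS with channel sums equalised. Thermal stability values, relative to control samples and from duplicates, are log2 fold changes.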

[2] = compound: CON(C)C(=O)N1N=C(c2cc(F)ccc2F)S[C@@]1(CCCN)c1ccccc1 [filanesib]
Procedure, shortened: as §1

[3] = compound: CO[C@H]1C[C@@H]2CC[C@@H](C)[C@@](O)(O2)C(=O)C(=O)N2CCCC[C@H]2C(=O)O[C@H]([C@H](C)C[C@@H]2CC[C@H](n3cnnn3)[C@H](OC)C2)CC(=O)[C@H](C)/C=C(\C)[C@@H](O)[C@@H](OC)C(=O)[C@H](C)C[C@H](C)/C=C/C=C/C=C/1C [zotarolimus]
Procedure, shortened: as §1

[4] = compound: COc1cc(C(=O)O)ccc1NC(=O)[C@@H]1N[C@@H](CC(C)(C)C)[C@](C#N)(c2ccc(Cl)cc2F)[C@H]1c1cccc(Cl)c1F [idasanutlin]
Procedure, shortened: as §1

[5] = compound: COc1cc(Nc2ncc3c(n2)-c2ccc(Cl)cc2C(c2c(F)cccc2OC)=NC3)ccc1C(=O)O [alisertib]
Procedure, shortened: as §1

[6] = compound: COc1cc2nc(-c3cc(F)ccc3O)nc(N[C@@H]3CNC[C@H]3C(C)(C)O)c2cc1OC
Procedure, shortened: as §1

[7] = compound: COc1cc2ncnc(Nc3ccc(F)c(Cl)c3)c2cc1OCCCN1CCOCC1 [gefitinib]
Procedure, shortened: as §1

[8] = compound: COc1cccc2cc(-c3nc([C@H]4CC[C@H](C(=O)O)CC4)n4ncnc(N)c34)[nH]c12
Procedure, shortened: as §1

[9] = compound: CS(=O)(=O)CCNCc1ccc(-c2ccc3ncnc(Nc4ccc(OCc5cccc(F)c5)c(Cl)c4)c3c2)o1 [lapatinib]
Procedure, shortened: as §1

[10] = compound: CS(=O)(=O)N1CCN(Cc2cc3nc(-c4cccc5[nH]ncc45)nc(N4CCOCC4)c3s2)CC1 [pictilisib]
Procedure, shortened: as §1

Target	log2 fold change [1]	log2 fold change [2]	log2 fold change [3]	log2 fold change [4]	log2 fold change [5]	log2 fold change [6]	log2 fold change [7]	log2 fold change [8]	log2 fold change [9]	log2 fold change [10]
H4C1 (UniProt P62805)	inactive: 0.103	inactive: 0.15	inactive: -0.215	inactive: 0.507	inactive: 0.077	inactive: -0.149	inactive: 0.011	inactive: -0.42	inactive: 0.074	inactive: 0.004
HBQ1 (UniProt P09105)	inactive: -0.034	inactive: -0.027	inactive: 0.051	inactive: -0.023	inactive: -0.115	inactive: -0.05	inactive: 0.033	inactive: 0.091	inactive: 0.001	inactive: -0.012
HCFC1 isoform 4 (UniProt P51610)	inactive: -0.003	inactive: -0.011	inactive: 0.01	inactive: -0.088	inactive: -0.046	inactive: 0.073	inactive: -0.035	inactive: 0.013	inactive: -0.02	inactive: 0.035
HBS1L isoform 2 (UniProt Q9Y450)	inactive: 0.179	inactive: -0.047	inactive: 0.096	inactive: -0.015	inactive: -0.08	inactive: -0.329	inactive: -0.168	inactive: 0.009	inactive: -0.046	inactive: -0.049
GSTCD (UniProt Q8NEC7)	inactive: -0.094	inactive: -0.202	inactive: 0.097	inactive: -0.018	inactive: -0.151	inactive: 0.044	inactive: 0.098	inactive: -0.036	inactive: 0.001	–
GSS (UniProt P48637)	inactive: -0.039	inactive: -0.059	inactive: -0.002	inactive: -0.017	inactive: -0.072	inactive: 0.032	inactive: 0	inactive: 0.053	inactive: -0.008	inactive: 0.021
GSTP1 (UniProt P09211)	inactive: -0.033	inactive: -0.038	inactive: 0.004	inactive: -0.033	inactive: -0.003	inactive: -0.003	inactive: 0.021	inactive: 0.069	inactive: -0.032	inactive: 0.035
HDAC6 (UniProt Q9UBN7)	active: 0.676	inactive: 0.006	inactive: 0.008	inactive: -0.055	inactive: -0.097	inactive: 0.028	inactive: 0.043	inactive: -0.027	inactive: 0.016	inactive: 0.062
GTPBP1 (UniProt O00178)	inactive: -0.03	inactive: 0.037	inactive: 0.027	inactive: -0.02	inactive: -0.041	inactive: 0.053	inactive: 0.004	inactive: 0.031	inactive: -0.004	inactive: -0.068
HEATR5A (UniProt Q86XA9)	inactive: -0.214	inactive: -0.141	inactive: 0.107	inactive: -0.043	inactive: -0.034	inactive: -0.107	inactive: -0.106	inactive: -0.239	inactive: 0.076	inactive: -0.027
GSTM2 (UniProt P28161)	inactive: 0.025	inactive: -0.048	inactive: 0.015	inactive: 0.034	inactive: -0.1	inactive: -0.044	inactive: -0.001	inactive: 0.015	inactive: 0.135	inactive: 0.136
H1-3 (UniProt P16402)	inactive: -0.097	inactive: 0.338	inactive: -0.018	inactive: 0.16	inactive: -0.307	inactive: -0.113	inactive: 0.005	inactive: -0.371	inactive: 0.18	inactive: -0.149
GSPT2 (UniProt Q8IYD1)	inactive: -0.075	inactive: -0.024	inactive: -0.06	inactive: -0.041	inactive: 0.058	inactive: 0.089	inactive: -0.016	inactive: 0.064	inactive: 0.037	inactive: 0.176
HACD3 (UniProt Q9P035)	inactive: -0.037	inactive: -0.016	inactive: -0.074	inactive: -0.044	inactive: -0.019	inactive: 0.05	inactive: 0.034	inactive: 0.017	inactive: 0.008	inactive: 0
HAUS1 (UniProt Q96CS2)	inactive: 0.118	inactive: 0.017	inactive: 0.104	inactive: -0.032	inactive: -0.032	inactive: -0.042	inactive: 0.111	inactive: -0.033	inactive: 0.103	inactive: -0.015
HDGFL2 (UniProt Q7Z4V5)	inactive: 0.032	inactive: 0.056	inactive: -0.025	inactive: 0.012	inactive: -0.051	inactive: -0.013	inactive: 0.025	inactive: 0.04	inactive: -0.019	inactive: -0.004
HECTD1 (UniProt Q9ULT8)	inactive: -0.039	inactive: 0.091	inactive: 0.023	inactive: 0.047	inactive: 0.087	inactive: -0.04	inactive: -0.016	inactive: -0.132	inactive: 0.096	inactive: 0.02
HEBP2 (UniProt Q9Y5Z4)	inactive: -0.033	inactive: -0.014	inactive: -0.004	inactive: -0.003	inactive: -0.031	inactive: 0	inactive: 0.013	inactive: 0.022	inactive: -0.009	inactive: 0.05
GSR (UniProt P00390)	inactive: 0.023	inactive: -0.065	inactive: -0.039	inactive: -0.049	inactive: -0.032	inactive: 0.015	inactive: -0.016	inactive: 0.043	inactive: -0.057	inactive: 0.036
HERC2 (UniProt O95714)	inactive: -0.073	inactive: 0.162	inactive: 0.006	inactive: 0.237	inactive: 0.07	inactive: -0.131	inactive: -0.02	inactive: 0.029	inactive: 0.201	inactive: 0.045
HCLS1 (UniProt P14317)	inactive: -0.031	inactive: -0.008	inactive: 0.003	inactive: -0.018	inactive: -0.047	inactive: 0.046	inactive: -0.006	inactive: 0.061	inactive: -0.05	inactive: 0.059
HAUS6 (UniProt Q7Z4H7)	inactive: -0.069	inactive: 0.265	inactive: 0.073	inactive: -0.041	inactive: 0.049	inactive: -0.245	inactive: 0.076	inactive: -0.173	inactive: 0.173	–
HEMGN (UniProt Q9BXL5)	inactive: -0.053	inactive: 0.029	inactive: -0.012	inactive: 0.003	inactive: -0.015	inactive: 0.005	inactive: 0.001	inactive: 0.005	inactive: -0.021	inactive: 0.013
GSN (UniProt P06396)	inactive: 0.015	inactive: -0.013	inactive: -0.146	inactive: 0.047	inactive: 0.108	inactive: -0.015	inactive: -0.059	inactive: 0.226	inactive: -0.03	inactive: -0.034
HDHD5 (UniProt Q9BXW7)	inactive: -0.038	inactive: -0.109	inactive: -0.032	inactive: -0.09	inactive: -0.034	inactive: -0.042	inactive: -0.061	inactive: 0.115	inactive: 0.167	inactive: -0.006
HBG2 (UniProt P69892)	inactive: 0.118	inactive: -0.092	inactive: 0.057	inactive: -0.069	inactive: -0.127	inactive: -0.142	inactive: -0.034	inactive: 0.035	inactive: 0.093	inactive: -0.058
HELB (UniProt Q8NG08)	inactive: -0.054	inactive: -0.042	inactive: 0.031	inactive: -0.029	inactive: -0.046	inactive: -0.004	inactive: 0.02	inactive: -0.016	inactive: 0.091	inactive: 0.146
HAT1 (UniProt O14929)	inactive: 0.14	inactive: -0.049	inactive: 0.075	inactive: 0.055	inactive: 0.019	inactive: 0.066	inactive: 0.008	inactive: -0.014	inactive: -0.002	inactive: -0.076
HEPH isoform 3 (UniProt Q9BQS7)	inactive: -0.002	inactive: 0.073	inactive: 0.03	inactive: 0.054	inactive: -0.026	inactive: -0.052	inactive: 0.028	inactive: 0.006	inactive: 0.058	inactive: 0.051
HDHD3 (UniProt Q9BSH5)	inactive: -0.021	inactive: -0.03	inactive: -0.021	inactive: 0.019	inactive: -0.085	inactive: -0.022	inactive: 0.022	inactive: 0.048	inactive: -0.048	inactive: 0.056

Fetched one by one from above:
Target	log2 fold change [1]	log2 fold change [2]	log2 fold change [3]	log2 fold change [4]	log2 fold change [5]	log2 fold change [6]	log2 fold change [7]	log2 fold change [8]	log2 fold change [9]	log2 fold change [10]
HBG2 (UniProt P69892)	inactive: 0.118	inactive: -0.092	inactive: 0.057	inactive: -0.069	inactive: -0.127	inactive: -0.142	inactive: -0.034	inactive: 0.035	inactive: 0.093	inactive: -0.058
GSTM2 (UniProt P28161)	inactive: 0.025	inactive: -0.048	inactive: 0.015	inactive: 0.034	inactive: -0.1	inactive: -0.044	inactive: -0.001	inactive: 0.015	inactive: 0.135	inactive: 0.136
